{
  "sequences": {"note": "Chains of the proteins cited; added tags and fusions are not shown. Lines headed by an entry give the natural chain unless they say otherwise; changes in a name come on top. Residues count along the entry.", "UniProt P0DJD3, 8-85": "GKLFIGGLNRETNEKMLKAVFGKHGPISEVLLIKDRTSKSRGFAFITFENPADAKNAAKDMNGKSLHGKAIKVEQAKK", "UniProt O75526, 8-86": "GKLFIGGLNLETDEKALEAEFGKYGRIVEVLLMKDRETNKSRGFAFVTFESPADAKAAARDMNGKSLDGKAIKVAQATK", "UniProt P38159, 8-86": "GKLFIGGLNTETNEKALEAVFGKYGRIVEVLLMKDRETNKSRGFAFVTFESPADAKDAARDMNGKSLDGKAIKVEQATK"},
  "source": "paper PMC2762042",
  "key": {"[1]": {"biological_target": "T1, Tra2beta (transfected) (UniProt P62995)", "T1 sequence (looked up, limits assumed)": "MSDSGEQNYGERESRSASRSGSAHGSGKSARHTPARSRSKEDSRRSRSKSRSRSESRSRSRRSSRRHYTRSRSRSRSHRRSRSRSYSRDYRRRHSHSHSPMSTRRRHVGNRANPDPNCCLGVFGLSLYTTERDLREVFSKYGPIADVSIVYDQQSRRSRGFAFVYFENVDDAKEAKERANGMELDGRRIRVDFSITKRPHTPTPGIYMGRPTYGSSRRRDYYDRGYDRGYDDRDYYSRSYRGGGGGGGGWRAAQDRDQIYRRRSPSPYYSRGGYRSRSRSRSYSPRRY", "test": "UV crosslinking", "conditions": "protein in a lysate after overexpression"}, "[2]": {"biological_target": "RBMY RRM (Homo sapiens?) (UniProt P0DJD3)", "test": "EMSA", "conditions": "EMSA with radio-labelled T7 transcripts and 30 or 100 ng RRM protein, recombinant protein, probe letters rebuilt from the primers and the genome, part of a longer molecule; for binding result: much weaker than S1A, label: radio-labelled"}, "[3]": {"biological_target": "hnRNP G-T RRM (Homo sapiens) (UniProt O75526)", "test": "EMSA", "conditions": "EMSA with radio-labelled T7 transcripts and 30 or 100 ng RRM protein, recombinant protein, probe letters rebuilt from the primers and the genome, part of a longer molecule"}, "[4]": {"biological_target": "hnRNP G RRM (Homo sapiens) (UniProt P38159)", "test": "EMSA", "conditions": "EMSA with radio-labelled T7 transcripts and 30 or 100 ng RRM protein, recombinant protein, probe letters rebuilt from the primers and the genome, part of a longer molecule"}},
  "note": "The exact form of at least one protein or probe is not confirmed. For some of these results: Negatives hold for the conditions tested. For some of these results: A weaker result is weaker than the reference pair of the same experiment. For some of these results: At least one verdict was read from the data and is not stated in words by the source. For some of these results: Results from cells or extracts need not show a direct contact. For some of these results: Where a protein sequence is shown, tags need not be part of it.",
  "data": [
    {"sequence": "ACCAAACAAGGACCUCAGGAAGCCUUACUGUGAAUGUCAUGUAUAACUAUGAUUUCUGCCUUUGAAAAGUUCUGGUCCA [F1]", "values": [
      {"measurement": "binding result", "setting": "[1]; very weak, probe letters rebuilt from the primers and the genome, part of a longer molecule", "result": "binds more weakly"},
      {"measurement": "Kd", "setting": "[2]", "result": 3.3, "unit": "nM"},
      {"measurement": "Kd", "setting": "[3]", "result": 3.9, "unit": "nM"},
      {"measurement": "binding result", "setting": "[4]", "result": "no binding"}
    ]},
    {"sequence": "AGGUAUUGGGCUUUGGCUGAGGGCUUUUUGUUGUUGUUGUUGUUGUUUUUUUGUUUUUUGUUUUUUGUUUUUUUUUUGAGACAGGGUUUCACU [F4]", "values": [
      {"measurement": "binding result", "setting": "[2]", "result": "binds more weakly"},
      {"measurement": "binding result", "setting": "[3]; label: radio-labelled", "result": "binds"},
      {"measurement": "binding result", "setting": "[4]; label: radio-labelled", "result": "no binding"}
    ]},
    {"sequence": "GAAAAGUUCUGGUCCAAUGGAACGAUGAGUCGGUGCUUAUUUUUUAUCCUGUAGGAGAAAAAGAAUAAAAGUGACACACC [F2]", "values": [
      {"measurement": "binding result", "setting": "[2]", "result": "binds more weakly"},
      {"measurement": "binding result", "setting": "[4]; label: radio-labelled", "result": "no binding"}
    ]},
    {"sequence": "GAAGAAGAAGAAGAAGAA [(GAA)6]", "values": [
      {"measurement": "binding result", "setting": "[1]", "result": "binds"}
    ]}
  ]
}
